PubChem BioAssay AID1259254 | NCATS, 2017
Shown is a random part of about 59,000 reagents. Over the whole deposit, about 1,550 (2.6%) got an active call. 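G2 share is only a proxy for re-replication; each gene was hit by three separate siRNAs, and active genes were retested.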 A number with no mark means an inactive call. Reagents against one gene are numbered here. Not all columns of the deposit are shown. Not stated in the record: the amount of reagent.

- Test: 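Genome-wide screen for genes that prevent DNA re-replication in cancer cells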 (primary screen)
- System: human HCT116 colorectal cancer cells
- Knock-down reagent: single siRNA against human genes
- Timing: 3 days
- Read-out: 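Imaged Hoechst DNA stain sorts each cell into a cycle phase by DNA amount; per plate, G2 fraction set to 0% for non-targeting and 100% for GMNN siRNA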
- Scale: G2 robust z-score: higher = more G2 cells, more excess DNA replication
- Call rule: 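Active siRNAs have a G2 robust z of 5 or more median absolute deviations over the median, which in these data means about 38% or higher of GMNN control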

Against ERAS (GeneID 3266) #1, the entry reads G2 robust z-score -0.482. Against ERAS (GeneID 3266) #2, the values are G2 robust z-score -0.814. For ERAS (GeneID 3266) #3 the deposit lists G2 robust z-score -0.706. With knock-down of SKAP2 (GeneID 8935) #1, the record shows G2 robust z-score -0.0374. With knock-down of SKAP2 (GeneID 8935) #2, the screen gave G2 robust z-score -0.444. SKAP2 (GeneID 8935) #3 gave G2 robust z-score -0.783.

DDX55 (GeneID 57696) #1 showed G2 robust z-score 2.73. Against DDX55 (GeneID 57696) #2, the values are G2 robust z-score 2.97. Knock-down of DDX55 (GeneID 57696) #3 came out at: G2 robust z-score -0.987. For DCAF17 (GeneID 80067) #1, the entry reads G2 robust z-score 1.9. DCAF17 (GeneID 80067) #2 gave G2 robust z-score 1.53. For DCAF17 (GeneID 80067) #3, the values are G2 robust z-score -0.295.

Knock-down of C17orf58 (GeneID 284018) #1 came out at: G2 robust z-score 0.171. For C17orf58 (GeneID 284018) #2, the values are G2 robust z-score -0.0323. For C17orf58 (GeneID 284018) #3, the entry reads G2 robust z-score 0.639. With knock-down of NFYB (GeneID 4801) #1, the screen gave G2 robust z-score 1.32. Against NFYB (GeneID 4801) #2, the entry reads G2 robust z-score -0.335. Knock-down of NFYB (GeneID 4801) #3 gave: G2 robust z-score 0.778.

ZNRF2 (GeneID 223082) #1 scored G2 robust z-score 1. For ZNRF2 (GeneID 223082) #2 the deposit lists G2 robust z-score -0.923. After knock-down of ZNRF2 (GeneID 223082) #3 the results were G2 robust z-score 0.27. After knock-down of KASH5 (GeneID 147872) #1, the record shows G2 robust z-score -1.3. KASH5 (GeneID 147872) #2 showed G2 robust z-score 3.83. KASH5 (GeneID 147872) #3 scored G2 robust z-score 3.6.

Quoted from the listing, 3 entries:
ZNRF2 (GeneID 223082) #1 — G2 robust z-score: 1
ZNRF2 (GeneID 223082) #2 — G2 robust z-score: -0.923
ZNRF2 (GeneID 223082) #3 — G2 robust z-score: 0.27
